Reference: PubChem BioAssay AID651803 (National Center for Advancing Translational Sciences (NCATS), 2012)
In all, about 1,200 compounds went through this assay and fewer than 10 were called active. Calls come from the whole dose curve; as a rule, active = well fitted curve in the direction sought with a large enough effect; inconclusive = small, poorly fitted or top-dose-only effect, or another doubt; inactive = no such curve, though single readings can be large or run the other way. Some of the results follow. Residues, ends and D or L forms follow the SMILES beside them.

Amino acid sequences for entries named in this document (tags omitted). A change or cut given only in a name is not applied to a line headed by its entry.
UniProt P11308: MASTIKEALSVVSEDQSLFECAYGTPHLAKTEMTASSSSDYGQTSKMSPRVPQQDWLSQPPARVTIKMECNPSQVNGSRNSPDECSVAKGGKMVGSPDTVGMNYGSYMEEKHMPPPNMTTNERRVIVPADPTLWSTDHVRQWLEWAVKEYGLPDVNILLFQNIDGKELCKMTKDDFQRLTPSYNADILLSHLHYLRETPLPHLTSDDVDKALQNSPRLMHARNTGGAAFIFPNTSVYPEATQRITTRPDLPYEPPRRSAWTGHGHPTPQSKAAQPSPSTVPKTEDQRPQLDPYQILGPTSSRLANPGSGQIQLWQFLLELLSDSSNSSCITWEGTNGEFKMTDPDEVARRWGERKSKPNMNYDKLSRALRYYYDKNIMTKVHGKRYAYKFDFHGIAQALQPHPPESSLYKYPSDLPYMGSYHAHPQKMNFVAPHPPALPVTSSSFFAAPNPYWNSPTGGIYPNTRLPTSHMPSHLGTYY

Target: Transcriptional regulator ERG (Homo sapiens) (UniProt P11308)
Assay: qHTS for Small Molecule Inhibitors of the ERG Ets/DNA interaction: TR assay against cherry picks; note: % of control where 0% means no effect
Settings: ERG Ets domain-DNA fluorescence polarization, Texas red probe; at 154 µM (top of the series)
Procedure, shortened: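 Polarization read sequentially for fluorescein (ex 480/em 535 nm) and Texas red (ex 555/em 632 nm) probes, 5 nM and 100 nM solutions, displaced from His-ERG Ets domain (1 uM solution), pH 7.5 Tris/KCl/EDTA/DTT buffer.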

Activity change, negative = inhibition, inactive:
Cc1cccc(OCC(=O)N(Cc2ccc(C(C)(C)C)cc2)Cc2ccco2)c1 -18.1%, O=C(CSc1ccccc1)NCc1ccc(F)cc1 -2.97%, CC(=O)OCCn1c2nc(=O)[nH]c(=O)c-2nc2cc(C)c(C)cc21 54.3%, Cc1ccc2nc3c(c(C(=O)OC4CCOC4=O)c2c1)CCCC3 (centres undefined) 5.65%, Cc1ccc2cccc(OCCCOc3ccccc3F)c2n1 -6.41%, CCCCOC(=O)c1ccc(N)cc1 21%, CCCCNc1cc(F)nc(N)n1 1.22%, COc1ccc(Cc2nnc(Nc3ccccc3)s2)cc1Br -1.2%, O=C(Cn1cc2c(n1)CCCC2)NCc1ccccn1 4.97%, Clc1cccc(OCCCN2CCCC2)c1Cl 4.18%, CC(C)C(C(=O)O)N1CCS(=O)(=O)CC1 (centres undefined) 4.35%, O=C(O)COc1ccc(F)cc1Br 4.26%, OCCCC1CCCCN1Cc1nc(Cc2ccccc2Cl)no1 (centres undefined) -11%, O=C(CC(c1ccccc1)c1cc(Cl)ccc1O)NCCCN1CCOCC1 (centres undefined) 4.28%, O=C(NC(c1ccccc1)C(Cl)Cl)c1ccccc1 (centres undefined) -7.15%, Cc1cnc(CNC(=O)CC2C(=O)NCCN2Cc2ccccc2C(F)(F)F)cn1 (centres undefined) 5.3%, CCCCSc1cc(=O)n(-c2ccccc2)nc1C(=O)OCC -3.95%, CCCCOc1ccc(C(=O)N2CC(=O)Nc3ccc(Br)cc3C2c2ccc(F)cc2)cc1 (centres undefined) -13.8%, Clc1ccc(SCc2nc3ccccc3[nH]2)cc1 -2.08%, CN(C)c1nc(C=C(C#N)C#N)c(Cl)n1-c1ccc(F)cc1 4.65%, COC(=O)c1ccccc1SC(CC(=O)c1ccccc1)c1ccc(F)cc1 (centres undefined) -8.26%, Cc1occc1C(=O)NCCc1ccc(Cl)cc1 -3.8%, O=C(CN1C(=O)NC(c2ccc(F)cc2)C1=O)Nc1ccc2c(c1)OCCO2 (centres undefined) -0.206%, Cc1cccc(-n2c(-c3ccccc3)c[nH]c2=S)c1C 6.31%, COc1ccc(S(=O)(=O)NCCNC(=O)N2CCOCC2)cc1 3.17%, COc1ccccc1NC(=O)Cn1c(=O)n(CCC(=O)NCC2CCCO2)c(=O)c2cc(OC)c(OC)cc21 (centres undefined) 0.0258%, Cn1c(=O)c2[nH]cnc2n(C)c1=O 1.82%, O=[N+]([O-])c1ccc(Cc2ccc([N+](=O)[O-])cc2)cc1 -3.11%, CC(=O)NC(Cc1ccccc1)C(=O)NC(Cc1ccccc1)C(=O)O (stereo not drawn) (Ac-Phe-Phe-OH; configuration not given here) 8.39%, CC(CN1CCCCC1)NC(=O)c1cccs1 (centres undefined) -5.25%, CN(C(=O)COC(=O)c1cc(S(=O)(=O)N2CCOCC2)ccc1F)C1CCS(=O)(=O)C1 (centres undefined) 1.52%, CCOC(=O)NCc1ccc2c(c1)cc(C)n2C 17.6%, Cc1cccc(NC(=O)CN2C(=O)CNC2=O)c1 4.65%, Cc1cccc(C(=O)N[C@H](C(=O)Nc2ccc(C)c(S(=O)(=O)N(C)C)c2)C(C)C)c1 1.21%, O=[N+]([O-])c1cccnc1Sc1ccccc1Cl 4.29%, CC(=O)Nc1ccc(S(=O)(=O)NCCC(=O)OCC(=O)c2cc(C)ccc2C)cc1 -0.938%, COc1ccc(S(=O)(=O)N2CCOCC2)cc1NC(=O)CSc1nnc2n1CCCCC2 2.84%, C/C(=N\Nc1ccc(C#N)cc1[N+](=O)[O-])c1ccc(C)o1 0.206%, COc1ccc(NC(=O)NCc2ccccn2)c(OC)c1 -2.62%, CCOC(=O)CSc1nc2ccc(NC(=O)c3ccc(F)cc3)cc2s1 4.85%, COc1ccc(OC)c(NC(=O)Cn2cnc3sc(C)c(S(=O)(=O)N4CCN(c5ccccc5OC)CC4)c3c2=O)c1 -7.07%, COC(=O)c1ccc2c(=O)n(CCN3CCOCC3)c(SCC(=O)Nc3ccc(OC)cc3OC)nc2c1 7.16%, COc1ccc(-c2cccc(NS(=O)(=O)c3cc([N+](=O)[O-])ccc3C)c2)nn1 -11.7%, Cc1cccn2c(CNCCc3ccccn3)c(C(=O)N3CCOCC3)nc12 14.4%, COC(=O)c1ccc(/C=C2\Oc3ccccc3NC2=O)cc1 -11.4%, NCCNc1ccc2nnnn2n1 6.05%, O=C(NCC(=O)N(c1ccccc1)C(C(=O)NC1CCCCC1)c1cccnc1)c1ccco1 (centres undefined) 1.05%, CCOc1ccc(S(=O)(=O)N2CC(=O)Nc3ccccc32)cc1 5.42%, O=C(CN1C(=O)c2ccccc2S1(=O)=O)NCCSCc1c(F)cccc1Cl -12%, COc1cccc(C(=O)OCC(=O)Nc2cc(C)on2)c1OC 4.8%, Cc1ccc([N+](=O)[O-])cc1NC(=O)c1ccccc1 -9.35%, COc1ccc(/C=C2\SC(=S)N(CC(=O)NCCO)C2=O)cc1 4.28%, O=S(=O)(Nc1nc2ccccc2nc1NCc1ccco1)c1cccs1 -16.7%, CCOC(=O)CC1C(=O)NCCN1C(=O)c1c(F)cccc1F (centres undefined) -13.3%, COc1cc(NCCCNC(C)C)c2nccc(C)c2c1 1.99%, NC12CC3CC(CC(C3)C1)C2 -12.3%, O=C(NCCN1CCCC1)c1ccc2c(c1)N(Cc1cccc(Cl)c1)C(=O)c1ccccc1S2(=O)=O -4.4%, COc1cccc(N=C2CC(C)(C)CC(=O)/C2=C(/O)c2ccccc2)c1 -11%, Cc1nn(-c2ccc(Cl)cc2)c2[nH]c(CCl)cc(=O)c12 12.5%, CC(C)CCN1CCN(C2CCN(c3ccc4c(c3)OCO4)CC2)CC1CCO (centres undefined) -8.13%, COc1ccc(C(=O)NCC(=O)N/N=C/c2cccnc2)cc1 -0.223%, O=C(CNC(=S)N(CCCN1CCOCC1)Cc1cccs1)NC1CCCCC1 2%, O=C(NC1CCCCCC1)c1ccc(-n2cnnc2)cc1 9.32%, COc1ccc(-c2noc(Cn3c(=O)c4ccccc4n(CC(=O)Nc4cccc(C(F)(F)F)c4)c3=O)n2)cc1 12.9%, CC1CCCCC1NC(=O)/C(C#N)=C/c1ccc(OCC(N)=O)cc1 (centres undefined) -12.7%, C=CCn1c(=O)[nH]c2cc(C(=O)N3CC=C(c4ccccc4)CC3)ccc2c1=O 0.0273%, Cc1cccn2c(=O)cc(COc3ccc(NC(=O)C(C)C)cc3)nc12 -1.94%, Oc1ccc(Nc2ccc3ccccc3c2)cc1 -16%, Nc1ccc2nc(SCC(=O)N3CCOCC3)sc2c1 0.349%, COc1ccccc1NS(=O)(=O)c1ccc(C)c(NC(=O)c2c(C)noc2C)c1 4.15%, Cc1cc(OCc2nnc(SC(C)C(=O)O)n2-c2ccccc2)ccc1Cl (centres undefined) 3.34%, COC(=O)c1c(C(=O)OC)c(-c2ccc(C(C)(C)C)cc2)n2c1CS(=O)C2 (centres undefined) 4.8%, COc1ccc(OCC(=O)OCc2cc(=O)n3nc(-c4cccs4)sc3n2)cc1 9.8%, Cc1ccc2c(C)c(C(=O)N(C)C(C)c3ccon3)oc2c1C (centres undefined) -1.25%, Cc1ccc(NC(=O)COC(=O)/C=C/c2c(C)nn(-c3ccc(F)cc3)c2Cl)cc1F -1.54%, CCN(CC)C(=O)Cn1cc(C(=O)C(=O)NCCCN2CCOCC2)c2ccccc21 2.97%, CN(C)C(CNC(=O)Cc1ccc([N+](=O)[O-])cc1)c1ccccc1 (centres undefined) -18.3%, COc1ccc(C(=O)N[C@H](C(=O)N2CCN(c3ccccc3F)CC2)C(C)C)cc1 2.79%, Cc1cccc(C)c1-n1cccc1/C=C1/C(=N)N2C(=NC1=O)SN=C2S(C)(=O)=O -2.47%, O=C(/C=C/c1ccc([N+](=O)[O-])cc1)NCc1ccco1 2.4%, COc1ccc(-c2nc3c(c4nnc(SC(C)C(=O)Nc5ccc(C)cc5)n24)COC(C)(C)C3)cc1 (centres undefined) 5.43%, O=C(Nc1ncc([N+](=O)[O-])s1)c1cccs1 -16.8%, COc1ccc(C(=O)NCc2ccc(OCCN(C)C)cc2)cc1OC -1.94%, Cc1ccc2nc3c(c(N)c2c1)CCN3C -19.9%, COc1ccc(NC(C)c2ccccc2)cc1 (centres undefined) 6.03%, CS(=O)(=O)N(Cc1ccccc1)c1ccc(C(=O)Nc2ccc(Cl)cc2)cc1 0.576%, CCCCn1c(N)c(N(CC(C)C)C(=O)c2ccc(S(=O)(=O)N(CC)c3ccccc3)cc2)c(=O)[nH]c1=O 2.48%, COc1cc(C2Nc3ccccc3NC3=C2C(=O)CC(c2ccc(OC)c(OC)c2)C3)ccc1O (centres undefined) -9.45%, CCOC(=O)N1CCC(NC(=O)CSCc2nc(-c3ccc(OCC)cc3)oc2C)CC1 -9.6%, COc1ccc(C(=O)c2c[nH]c(C(=O)N=CN(C)C)c2)cc1 0.29%, O=C(NCc1ccc2c(c1)OCO2)NC1CCCCC1 19.9%, CCCCN(CC)C(=O)CSc1nc2n[nH]c(C)c2c(=N)n1-c1cccc(C)c1 -3.72%, COc1ccc(OCC(=O)NNC(=O)C2CCN(c3ncnc4sc(C)c(C)c34)CC2)cc1 0.13%, Oc1ccccc1/C=N/n1c(COc2ccccc2)n[nH]c1=S -17.3%
